Assay results as given in the supplement of paper PMC7666118.
Some of the results follow.

Sequences of proteins named here, by UniProt entry; tags and fusion partners are left off. A change or cut given only in a name is not applied to a line headed by its entry.
UniProt P42694: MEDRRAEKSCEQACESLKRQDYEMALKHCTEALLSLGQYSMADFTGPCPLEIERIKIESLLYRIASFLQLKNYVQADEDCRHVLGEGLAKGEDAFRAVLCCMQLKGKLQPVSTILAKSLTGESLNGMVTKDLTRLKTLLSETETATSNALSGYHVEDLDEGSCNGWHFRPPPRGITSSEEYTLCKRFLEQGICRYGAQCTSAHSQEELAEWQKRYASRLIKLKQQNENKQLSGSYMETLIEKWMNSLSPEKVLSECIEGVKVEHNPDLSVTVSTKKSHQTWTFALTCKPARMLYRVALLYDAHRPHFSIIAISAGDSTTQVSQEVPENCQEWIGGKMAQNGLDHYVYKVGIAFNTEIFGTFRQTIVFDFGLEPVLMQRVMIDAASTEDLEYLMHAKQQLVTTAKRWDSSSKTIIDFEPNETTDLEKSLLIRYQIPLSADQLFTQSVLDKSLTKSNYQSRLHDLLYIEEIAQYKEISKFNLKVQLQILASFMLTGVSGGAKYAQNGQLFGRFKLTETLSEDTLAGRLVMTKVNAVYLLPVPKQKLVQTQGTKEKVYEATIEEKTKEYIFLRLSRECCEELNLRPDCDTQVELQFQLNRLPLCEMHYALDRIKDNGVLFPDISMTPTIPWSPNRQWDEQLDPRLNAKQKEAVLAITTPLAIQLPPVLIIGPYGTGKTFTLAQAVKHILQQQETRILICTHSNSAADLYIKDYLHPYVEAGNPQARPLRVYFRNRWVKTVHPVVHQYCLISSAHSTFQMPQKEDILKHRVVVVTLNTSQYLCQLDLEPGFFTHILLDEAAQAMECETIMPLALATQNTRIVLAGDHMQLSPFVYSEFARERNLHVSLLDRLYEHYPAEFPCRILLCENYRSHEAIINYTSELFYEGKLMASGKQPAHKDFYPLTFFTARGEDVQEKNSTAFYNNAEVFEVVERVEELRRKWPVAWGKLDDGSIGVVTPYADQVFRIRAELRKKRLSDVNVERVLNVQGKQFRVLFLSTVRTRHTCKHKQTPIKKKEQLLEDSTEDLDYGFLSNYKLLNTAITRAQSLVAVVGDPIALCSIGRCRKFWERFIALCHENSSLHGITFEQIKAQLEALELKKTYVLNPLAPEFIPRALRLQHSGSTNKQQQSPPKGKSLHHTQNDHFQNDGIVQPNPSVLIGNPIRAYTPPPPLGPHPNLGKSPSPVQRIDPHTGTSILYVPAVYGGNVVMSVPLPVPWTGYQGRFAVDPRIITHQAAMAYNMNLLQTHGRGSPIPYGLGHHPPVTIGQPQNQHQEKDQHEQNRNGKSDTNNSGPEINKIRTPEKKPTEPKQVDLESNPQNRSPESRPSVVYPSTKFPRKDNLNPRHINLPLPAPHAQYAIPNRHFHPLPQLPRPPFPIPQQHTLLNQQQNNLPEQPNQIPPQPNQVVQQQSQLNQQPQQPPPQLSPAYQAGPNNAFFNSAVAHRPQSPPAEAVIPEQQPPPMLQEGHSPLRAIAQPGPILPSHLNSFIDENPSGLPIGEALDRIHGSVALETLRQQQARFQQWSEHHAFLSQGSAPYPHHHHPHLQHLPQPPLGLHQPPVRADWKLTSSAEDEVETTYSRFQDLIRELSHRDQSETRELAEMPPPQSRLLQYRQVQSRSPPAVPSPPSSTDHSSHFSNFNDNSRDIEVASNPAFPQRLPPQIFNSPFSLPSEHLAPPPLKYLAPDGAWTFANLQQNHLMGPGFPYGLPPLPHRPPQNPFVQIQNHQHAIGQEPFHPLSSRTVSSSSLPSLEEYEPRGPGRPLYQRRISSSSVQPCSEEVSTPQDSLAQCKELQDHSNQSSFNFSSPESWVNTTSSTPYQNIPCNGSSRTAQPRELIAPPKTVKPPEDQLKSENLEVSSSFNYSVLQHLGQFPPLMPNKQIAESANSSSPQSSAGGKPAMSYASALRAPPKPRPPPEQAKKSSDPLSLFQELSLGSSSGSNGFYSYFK
UniProt Q96EW2: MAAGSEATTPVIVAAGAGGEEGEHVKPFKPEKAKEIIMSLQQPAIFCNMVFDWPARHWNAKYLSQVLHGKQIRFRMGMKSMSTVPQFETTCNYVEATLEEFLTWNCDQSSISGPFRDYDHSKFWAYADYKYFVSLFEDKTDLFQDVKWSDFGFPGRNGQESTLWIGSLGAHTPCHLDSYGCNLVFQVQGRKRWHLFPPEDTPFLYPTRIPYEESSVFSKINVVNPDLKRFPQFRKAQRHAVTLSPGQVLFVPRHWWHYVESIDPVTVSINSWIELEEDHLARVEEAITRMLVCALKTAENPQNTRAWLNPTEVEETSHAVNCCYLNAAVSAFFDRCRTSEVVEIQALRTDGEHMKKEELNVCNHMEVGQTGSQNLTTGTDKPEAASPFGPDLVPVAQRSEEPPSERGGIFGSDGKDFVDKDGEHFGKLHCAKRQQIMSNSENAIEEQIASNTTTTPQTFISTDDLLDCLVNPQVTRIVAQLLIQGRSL
UniProt Q9BW72: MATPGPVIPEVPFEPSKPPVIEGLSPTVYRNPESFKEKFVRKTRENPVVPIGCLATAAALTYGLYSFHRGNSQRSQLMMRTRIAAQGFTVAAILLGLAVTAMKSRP
UniProt Q6PFW1: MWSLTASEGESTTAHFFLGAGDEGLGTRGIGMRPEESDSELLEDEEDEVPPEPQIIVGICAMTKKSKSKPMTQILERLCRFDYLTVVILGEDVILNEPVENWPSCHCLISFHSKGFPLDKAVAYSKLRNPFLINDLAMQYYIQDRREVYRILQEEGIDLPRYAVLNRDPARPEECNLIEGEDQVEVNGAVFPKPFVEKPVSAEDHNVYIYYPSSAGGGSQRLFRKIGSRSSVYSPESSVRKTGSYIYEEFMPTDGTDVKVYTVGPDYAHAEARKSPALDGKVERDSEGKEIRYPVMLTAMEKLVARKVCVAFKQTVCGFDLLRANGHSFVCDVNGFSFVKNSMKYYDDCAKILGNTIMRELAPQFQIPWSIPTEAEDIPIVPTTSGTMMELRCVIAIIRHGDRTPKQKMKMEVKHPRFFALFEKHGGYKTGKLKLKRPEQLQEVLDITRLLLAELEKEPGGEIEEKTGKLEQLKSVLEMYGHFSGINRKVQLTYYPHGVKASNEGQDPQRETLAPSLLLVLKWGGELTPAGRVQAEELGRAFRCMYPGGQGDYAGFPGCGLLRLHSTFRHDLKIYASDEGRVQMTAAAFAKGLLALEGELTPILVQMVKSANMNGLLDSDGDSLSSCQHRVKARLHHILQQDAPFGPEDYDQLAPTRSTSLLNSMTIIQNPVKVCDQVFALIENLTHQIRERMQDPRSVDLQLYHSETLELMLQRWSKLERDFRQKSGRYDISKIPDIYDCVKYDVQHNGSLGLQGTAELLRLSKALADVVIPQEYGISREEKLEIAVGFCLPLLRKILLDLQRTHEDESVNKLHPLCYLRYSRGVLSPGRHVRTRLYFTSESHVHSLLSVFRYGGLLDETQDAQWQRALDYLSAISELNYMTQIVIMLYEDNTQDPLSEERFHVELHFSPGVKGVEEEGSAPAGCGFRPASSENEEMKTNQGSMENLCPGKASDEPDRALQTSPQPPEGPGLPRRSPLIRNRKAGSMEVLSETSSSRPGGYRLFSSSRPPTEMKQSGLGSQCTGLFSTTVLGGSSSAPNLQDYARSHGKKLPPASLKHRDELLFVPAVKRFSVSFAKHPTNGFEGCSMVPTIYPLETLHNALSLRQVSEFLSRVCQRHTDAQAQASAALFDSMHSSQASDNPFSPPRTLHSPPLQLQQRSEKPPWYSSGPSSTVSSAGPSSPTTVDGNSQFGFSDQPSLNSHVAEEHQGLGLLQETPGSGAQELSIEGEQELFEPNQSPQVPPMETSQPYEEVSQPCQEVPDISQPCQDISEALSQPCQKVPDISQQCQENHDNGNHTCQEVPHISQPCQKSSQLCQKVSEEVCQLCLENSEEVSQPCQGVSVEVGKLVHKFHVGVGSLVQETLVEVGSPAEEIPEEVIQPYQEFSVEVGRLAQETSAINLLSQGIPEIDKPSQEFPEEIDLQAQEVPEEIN
UniProt Q7LGA3: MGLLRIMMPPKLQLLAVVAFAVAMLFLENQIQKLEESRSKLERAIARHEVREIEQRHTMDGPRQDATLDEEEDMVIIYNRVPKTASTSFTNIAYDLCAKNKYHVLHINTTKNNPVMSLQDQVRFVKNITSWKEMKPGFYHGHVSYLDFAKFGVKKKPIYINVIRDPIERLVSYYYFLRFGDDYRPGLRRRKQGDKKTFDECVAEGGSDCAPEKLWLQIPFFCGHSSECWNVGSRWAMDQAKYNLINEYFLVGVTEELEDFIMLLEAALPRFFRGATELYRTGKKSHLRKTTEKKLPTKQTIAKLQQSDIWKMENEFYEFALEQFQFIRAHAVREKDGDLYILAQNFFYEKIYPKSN
UniProt Q9H9Y4: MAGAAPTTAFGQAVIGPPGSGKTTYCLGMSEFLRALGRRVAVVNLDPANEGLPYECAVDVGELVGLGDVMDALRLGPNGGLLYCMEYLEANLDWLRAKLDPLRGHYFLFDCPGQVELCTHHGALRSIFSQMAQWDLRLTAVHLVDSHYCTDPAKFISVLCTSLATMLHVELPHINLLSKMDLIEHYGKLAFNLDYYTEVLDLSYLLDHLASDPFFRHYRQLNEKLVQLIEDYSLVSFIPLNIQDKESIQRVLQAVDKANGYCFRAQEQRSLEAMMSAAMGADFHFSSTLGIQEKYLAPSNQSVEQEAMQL
UniProt P69905, whole entry: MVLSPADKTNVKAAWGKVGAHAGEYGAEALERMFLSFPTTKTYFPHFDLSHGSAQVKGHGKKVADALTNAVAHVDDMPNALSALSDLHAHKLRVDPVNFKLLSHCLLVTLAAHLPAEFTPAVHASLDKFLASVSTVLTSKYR
UniProt P06865: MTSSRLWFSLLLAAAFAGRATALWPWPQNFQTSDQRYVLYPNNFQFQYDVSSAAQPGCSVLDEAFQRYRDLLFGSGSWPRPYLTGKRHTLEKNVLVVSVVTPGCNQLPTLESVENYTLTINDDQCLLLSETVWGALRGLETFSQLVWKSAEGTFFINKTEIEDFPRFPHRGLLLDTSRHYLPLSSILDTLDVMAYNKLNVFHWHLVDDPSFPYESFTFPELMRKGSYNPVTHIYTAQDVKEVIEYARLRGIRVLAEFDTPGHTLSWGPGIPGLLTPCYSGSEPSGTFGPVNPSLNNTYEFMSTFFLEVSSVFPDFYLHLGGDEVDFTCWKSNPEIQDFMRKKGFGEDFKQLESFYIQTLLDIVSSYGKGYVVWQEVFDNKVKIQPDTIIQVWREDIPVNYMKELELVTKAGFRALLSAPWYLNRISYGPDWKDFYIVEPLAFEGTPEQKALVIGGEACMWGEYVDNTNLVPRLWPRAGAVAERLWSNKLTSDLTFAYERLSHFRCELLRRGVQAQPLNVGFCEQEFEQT
UniProt Q7Z4H3: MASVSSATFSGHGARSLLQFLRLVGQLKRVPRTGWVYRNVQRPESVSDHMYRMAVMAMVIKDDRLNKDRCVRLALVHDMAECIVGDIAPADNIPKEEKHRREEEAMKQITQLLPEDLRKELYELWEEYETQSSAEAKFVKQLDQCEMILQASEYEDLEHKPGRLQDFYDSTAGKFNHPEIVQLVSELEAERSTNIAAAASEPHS
UniProt Q8WUI4: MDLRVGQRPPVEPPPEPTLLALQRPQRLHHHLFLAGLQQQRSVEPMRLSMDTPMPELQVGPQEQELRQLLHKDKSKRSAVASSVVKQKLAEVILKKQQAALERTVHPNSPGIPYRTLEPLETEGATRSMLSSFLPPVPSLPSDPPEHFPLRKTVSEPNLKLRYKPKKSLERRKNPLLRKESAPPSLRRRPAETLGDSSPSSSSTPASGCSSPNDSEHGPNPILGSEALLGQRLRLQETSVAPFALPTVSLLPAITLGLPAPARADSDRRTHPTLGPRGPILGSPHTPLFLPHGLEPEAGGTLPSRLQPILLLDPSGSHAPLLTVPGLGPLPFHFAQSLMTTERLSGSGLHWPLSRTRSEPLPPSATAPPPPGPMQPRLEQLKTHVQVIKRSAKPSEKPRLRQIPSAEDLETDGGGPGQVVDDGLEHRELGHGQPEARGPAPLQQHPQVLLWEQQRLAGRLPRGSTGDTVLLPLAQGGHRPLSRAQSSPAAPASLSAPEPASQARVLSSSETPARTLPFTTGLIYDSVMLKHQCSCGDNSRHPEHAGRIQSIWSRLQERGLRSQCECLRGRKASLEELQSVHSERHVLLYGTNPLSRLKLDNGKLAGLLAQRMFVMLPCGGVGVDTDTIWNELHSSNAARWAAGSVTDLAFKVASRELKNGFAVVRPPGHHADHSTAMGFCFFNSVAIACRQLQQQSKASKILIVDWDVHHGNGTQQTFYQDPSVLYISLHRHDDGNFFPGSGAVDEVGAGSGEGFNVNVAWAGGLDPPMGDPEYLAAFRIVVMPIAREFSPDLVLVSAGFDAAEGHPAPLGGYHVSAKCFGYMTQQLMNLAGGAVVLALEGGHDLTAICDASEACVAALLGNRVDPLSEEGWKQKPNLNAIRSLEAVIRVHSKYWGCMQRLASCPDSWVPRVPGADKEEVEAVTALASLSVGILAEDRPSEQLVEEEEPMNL

These targets were tested with COc1ccc(Cn2ccc3cc(C)c(C(=O)NO)cc32)cc1 (assay: dose-dependent thermal stabilisation call (2D-TPP, DLPTP, 10% FDR) (binary (1 = stabilised)); higher = stabilised by the compound). Details: system: HL-60 intact cells; concentration range 0.04-10 µM.
Method: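 2D thermal proteome profiling in intact HL-60 cells treated with BRD-3811 (0, 0.04, 0.29, 2, 10 uM) for 90 min at 37 C, then heated 3 min at one of 12 temperatures (42-63.9 C). Soluble protein was quantified by TMT10 MS. The value is the DLPTP call of the paper: dose-dependent thermal stabilisation over all temperatures at 10% FDR (F-test of a dose-response against a flat model); one experiment, one call per tested protein.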

Target | dose-dependent thermal stabilisation call
HELZ (UniProt P42694) | inactive: 0
HSPBAP1 (UniProt Q96EW2) | inactive: 0
HIGD2A (UniProt Q9BW72) | inactive: 0
HISPPD2A (UniProt Q6PFW1) | inactive: 0
HAX1 (UniProt O00165) | inactive: 0
GRB10 (UniProt Q13322) | inactive: 0
HMGCS1 (UniProt Q01581) | inactive: 0
HIST2H2BA | inactive: 0
HS2ST1 (UniProt Q7LGA3) | inactive: 0
GSS (UniProt P48637) | inactive: 0
HPDL (UniProt Q96IR7) | inactive: 0
HINT2 (UniProt Q9BX68) | inactive: 0
HNRNPA0 (UniProt Q13151) | inactive: 0
HPS5 (UniProt Q9UPZ3) | inactive: 0
HSP90AB1 (UniProt P08238) | inactive: 0
HCCS (UniProt P53701) | inactive: 0
HCG_20857 | inactive: 0
GSPT1 (UniProt P15170) | inactive: 0
HSPB11 (UniProt Q9Y547) | inactive: 0
GPN1 (UniProt Q9HCN4) | inactive: 0

Target | dose-dependent thermal stabilisation call
HNRNPH1 (UniProt P31943) | inactive: 0
GPN2 (UniProt Q9H9Y4) | inactive: 0
GTPBP4 (UniProt Q9BZE4) | inactive: 0
HNRNPU (UniProt Q00839) | inactive: 0
GOLGB1 (UniProt Q14789) | inactive: 0
HNRNPC (UniProt P07910) | inactive: 0
HCG_18290 | inactive: 0
GRPEL1 (UniProt Q9HAV7) | inactive: 0
HEATR5B (UniProt Q9P2D3) | inactive: 0
GZMA (UniProt P12544) | inactive: 0
HMGB3 (UniProt O15347) | inactive: 0
GUK1 (UniProt Q16774) | inactive: 0
HSPD1 (UniProt P10809) | active: 1
HBA1 (UniProt P69905) | inactive: 0
H3F3A (UniProt P84243) | inactive: 0
HEXA (UniProt P06865) | inactive: 0
HDDC2 (UniProt Q7Z4H3) | inactive: 0
HDAC7 (UniProt Q8WUI4) | inactive: 0
GRHPR (UniProt Q9UBQ7) | inactive: 0
GOLM1 (UniProt Q8NBJ4) | inactive: 0
